# The list shows a part of the results.
# Columns and labels:
# Experiment in all cases: glycan array binding signal (z-score within array); higher = stronger binding
# Details in all cases: glycan notation: IUPAC condensed, linker removed
# [1] = target: Gal(a1-3)Gal(b1-4)GlcNAc
# Method in brief: (§1)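 The binding signal is a Z-score computed within each array and averaged over linkers. Arrays of the same protein sequence at different concentrations or buffers were also averaged together. Data originate from 3228 arrays in the Consortium for Functional Glycomics database, kept only where the protein sequence was available.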
# [2] = target: Gal(a1-3)Gal(b1-4)GlcNAc(b1-2)Man
# Method in brief: as §1
# [3] = target: Gal(a1-3)Gal(b1-4)GlcNAc(b1-2)Man(a1-3)[Gal(a1-3)Gal(b1-4)GlcNAc(b1-2)Man(a1-6)]Man(b1-4)GlcNAc(b1-4)GlcNAc
# Method in brief: as §1
# [4] = target: Gal(a1-3)Gal(b1-4)GlcNAc(b1-3)GalNAc
# Method in brief: as §1
# [5] = target: Gal(a1-3)Gal(b1-4)GlcNAc(b1-6)GalNAc
# Method in brief: as §1
# [6] = target: Gal(a1-3)Gal(b1-4)[Fuc(a1-3)]GlcNAc
# Method in brief: as §1
# [7] = target: Gal(a1-3)Gal(b1-4)[Fuc(a1-3)]GlcNAc(b1-2)Man(a1-3)[Gal(a1-3)Gal(b1-4)[Fuc(a1-3)]GlcNAc(b1-2)Man(a1-6)]Man(b1-4)GlcNAc(b1-4)GlcNAc
# Method in brief: as §1
# [8] = target: Gal(a1-3)GalNAc
# Method in brief: as §1
# [9] = target: Gal(a1-3)[Gal(a1-4)]Gal(b1-4)GlcNAc
# Method in brief: as §1
# [10] = target: Gal(a1-4)Gal(b1-3)GlcNAc(b1-2)Man(a1-3)[Gal(a1-4)Gal(b1-3)GlcNAc(b1-2)Man(a1-6)]Man(b1-4)GlcNAc(b1-4)GlcNAc
# Method in brief: as §1
# [11] = target: Gal(a1-4)Gal(b1-4)Glc
# Method in brief: as §1
# [12] = target: Gal(a1-4)Gal(b1-4)GlcNAc
# Method in brief: as §1
# [13] = target: Gal(a1-4)Gal(b1-4)GlcNAc(b1-2)Man(a1-3)[Gal(a1-4)Gal(b1-4)GlcNAc(b1-2)Man(a1-6)]Man(b1-4)GlcNAc(b1-4)GlcNAc
# Method in brief: as §1
# [14] = target: Gal(a1-4)Gal(b1-4)GlcNAc(b1-3)Gal(b1-4)Glc
# Method in brief: as §1
# [15] = target: Gal(a1-4)GlcNAc
# Method in brief: as §1
# [16] = target: Gal(a1-6)Glc
# Method in brief: as §1
# [17] = target: Gal(b1-2)Gal
# Method in brief: as §1
# [18] = target: Gal(b1-3)Gal
# Method in brief: as §1
# [19] = target: Gal(b1-3)Gal(b1-4)GlcNAc
# Method in brief: as §1
# [20] = target: Gal(b1-3)GalNAc
# Method in brief: as §1
# [21] = target: Gal(b1-3)GalNAc(a1-3)[Fuc(a1-2)]Gal(b1-4)Glc
# Method in brief: as §1
# [22] = target: Gal(b1-3)GalNAc(a1-3)[Fuc(a1-2)]Gal(b1-4)GlcNAc
# Method in brief: as §1
# [23] = target: Gal(b1-3)GalNAc(b1-3)Gal
# Method in brief: as §1
# [24] = target: Gal(b1-3)GalNAc(b1-3)Gal(a1-4)Gal(b1-4)Glc
# Method in brief: as §1
# [25] = target: Gal(b1-3)GalNAc(b1-4)Gal(b1-4)Glc
# Method in brief: as §1
# [26] = target: Gal(b1-3)GalNAc(b1-4)[Neu5Ac(a2-3)]Gal(b1-4)Glc
# Method in brief: as §1
# [27] = target: Gal(b1-3)GlcNAc
# Method in brief: as §1
# [28] = target: Gal(b1-3)GlcNAc(a1-3)Gal(b1-4)GlcNAc
# Method in brief: as §1
# [29] = target: Gal(b1-3)GlcNAc(a1-6)Gal(b1-4)GlcNAc
# Method in brief: as §1
# [30] = target: Gal(b1-3)GlcNAc(b1-2)Man
# Method in brief: as §1
# [31] = target: Gal(b1-3)GlcNAc(b1-2)Man(a1-3)[Gal(b1-3)GlcNAc(b1-2)Man(a1-6)]Man(b1-4)GlcNAc(b1-4)GlcNAc
# Method in brief: as §1
# [32] = target: Gal(b1-3)GlcNAc(b1-2)Man(a1-3)[Gal(b1-3)GlcNAc(b1-2)Man(a1-6)]Man(b1-4)GlcNAc(b1-4)[Fuc(a1-6)]GlcNAc
# Method in brief: as §1
# [33] = target: Gal(b1-3)GlcNAc(b1-2)Man(a1-3)[GlcNAc(b1-4)][Gal(b1-3)GlcNAc(b1-2)Man(a1-6)]Man(b1-4)GlcNAc(b1-4)GlcNAc
# Method in brief: as §1
# [34] = target: Gal(b1-3)GlcNAc(b1-2)[Gal(b1-3)GlcNAc(b1-6)]Man(a1-6)[Gal(b1-3)GlcNAc(b1-2)Man(a1-3)]Man(b1-4)GlcNAc(b1-4)GlcNAc
# Method in brief: as §1
# [35] = target: Gal(b1-3)GlcNAc(b1-3)Gal(b1-3)GlcNAc
# Method in brief: as §1
# [36] = target: Gal(b1-3)GlcNAc(b1-3)Gal(b1-4)Glc
# Method in brief: as §1
# [37] = target: Gal(b1-3)GlcNAc(b1-3)Gal(b1-4)GlcNAc
# Method in brief: as §1
# [38] = target: Gal(b1-3)GlcNAc(b1-3)Gal(b1-4)GlcNAc(b1-2)Man(a1-3)[Gal(b1-3)GlcNAc(b1-3)Gal(b1-4)GlcNAc(b1-2)Man(a1-6)]Man(b1-4)GlcNAc(b1-4)GlcNAc
# Method in brief: as §1
# [39] = target: Gal(b1-3)GlcNAc(b1-3)Gal(b1-4)GlcNAc(b1-2)[Gal(b1-3)GlcNAc(b1-3)Gal(b1-4)GlcNAc(b1-6)]Man(a1-6)[Gal(b1-3)GlcNAc(b1-3)Gal(b1-4)GlcNAc(b1-2)Man(a1-3)]Man(b1-4)GlcNAc(b1-4)[Fuc(a1-6)]GlcNAc
# Method in brief: as §1
# [40] = target: Gal(b1-3)GlcNAc(b1-3)Gal(b1-4)GlcNAc(b1-3)Gal(b1-4)GlcNAc(b1-2)[Gal(b1-3)GlcNAc(b1-3)Gal(b1-4)GlcNAc(b1-3)Gal(b1-4)GlcNAc(b1-6)]Man(a1-6)[Gal(b1-3)GlcNAc(b1-3)Gal(b1-4)GlcNAc(b1-3)Gal(b1-4)GlcNAc(b1-2)Man(a1-3)]Man(b1-4)GlcNAc(b1-4)[Fuc(a1-6)]GlcNAc
# Method in brief: as §1
# [41] = target: Gal(b1-3)GlcNAc(b1-3)Gal(b1-4)GlcNAc(b1-6)[Gal(b1-3)GlcNAc(b1-3)]Gal(b1-4)Glc
# Method in brief: as §1
# [42] = target: Gal(b1-3)GlcNAc(b1-3)Gal(b1-4)[Fuc(a1-3)]GlcNAc
# Method in brief: as §1
# [43] = target: Gal(b1-3)GlcNAc(b1-3)Gal(b1-4)[Fuc(a1-3)]GlcNAc(b1-6)[Gal(b1-3)GlcNAc(b1-3)]Gal(b1-4)Glc
# Method in brief: as §1
# [44] = target: Gal(b1-3)GlcNAc(b1-3)GalNAc
# Method in brief: as §1
# [45] = target: Gal(b1-3)GlcNAc(b1-6)Gal(b1-4)GlcNAc
# Method in brief: as §1
binder,measurement,setting,value
Epa2 (Candida glabrata) (protein) MGSSHHHHHHSSGLVPRGSHMASSKDPTSFPMGCSPQVLKTQPGLAVKLYSYGHPVPGCAYNTYQYPDFPRSGYKKERKLADITGVNGRIDIDLKPNDPCRVLSGNLPSNYNYQNTLTYTNFTMILYGYFQPKVTGYHTFNLEADDLLFMNLGAGNAFDCCRAESTLDNFGNYQSYSIWGTDKATADLTVFLVSGIYYPIRLFYVNRDNNAVLDFSFSTEFNKEIIHDFTSYFFSASDEEQCPGNI,glycan array binding signal (z-score),[1],0.099
same,glycan array binding signal (z-score),[2],-1.15
same,glycan array binding signal (z-score),[3],0.003
same,glycan array binding signal (z-score),[4],0.279
same,glycan array binding signal (z-score),[5],-0.743
same,glycan array binding signal (z-score),[6],-0.595
same,glycan array binding signal (z-score),[7],0.447
same,glycan array binding signal (z-score),[8],-0.37
same,glycan array binding signal (z-score),[9],-0.11
same,glycan array binding signal (z-score),[10],0.032
same,glycan array binding signal (z-score),[11],1
same,glycan array binding signal (z-score),[12],0.406
same,glycan array binding signal (z-score),[13],0.034
same,glycan array binding signal (z-score),[14],0.184
same,glycan array binding signal (z-score),[15],2.5
same,glycan array binding signal (z-score),[16],0.288
same,glycan array binding signal (z-score),[17],-1.01
same,glycan array binding signal (z-score),[18],-0.951
same,glycan array binding signal (z-score),[19],-0.446
same,glycan array binding signal (z-score),[20],-0.051
same,glycan array binding signal (z-score),[21],0.291
same,glycan array binding signal (z-score),[22],0.314
same,glycan array binding signal (z-score),[23],0.505
same,glycan array binding signal (z-score),[24],-0.078
same,glycan array binding signal (z-score),[25],1.09
same,glycan array binding signal (z-score),[26],0.497
same,glycan array binding signal (z-score),[27],-0.783
same,glycan array binding signal (z-score),[28],-0.874
same,glycan array binding signal (z-score),[29],0.297
same,glycan array binding signal (z-score),[30],-0.068
same,glycan array binding signal (z-score),[31],0.254
same,glycan array binding signal (z-score),[32],-0.373
same,glycan array binding signal (z-score),[33],-0.141
same,glycan array binding signal (z-score),[34],-0.157
same,glycan array binding signal (z-score),[35],-0.374
same,glycan array binding signal (z-score),[36],-0.223
same,glycan array binding signal (z-score),[37],-1.08
same,glycan array binding signal (z-score),[38],0.162
same,glycan array binding signal (z-score),[39],0.811
same,glycan array binding signal (z-score),[40],0.918
same,glycan array binding signal (z-score),[41],0.113
same,glycan array binding signal (z-score),[42],-1.45
same,glycan array binding signal (z-score),[43],0.064
same,glycan array binding signal (z-score),[44],-0.453
same,glycan array binding signal (z-score),[45],0.047

# In a second layout: results already given.
binder	measurement	setting	value
Epa2 (Candida glabrata) (protein) MGSSHHHHHHSSGLVPRGSHMASSKDPTSFPMGCSPQVLKTQPGLAVKLYSYGHPVPGCAYNTYQYPDFPRSGYKKERKLADITGVNGRIDIDLKPNDPCRVLSGNLPSNYNYQNTLTYTNFTMILYGYFQPKVTGYHTFNLEADDLLFMNLGAGNAFDCCRAESTLDNFGNYQSYSIWGTDKATADLTVFLVSGIYYPIRLFYVNRDNNAVLDFSFSTEFNKEIIHDFTSYFFSASDEEQCPGNI	glycan array binding signal (z-score)	[34]	-0.157
same	glycan array binding signal (z-score)	[35]	-0.374
same	glycan array binding signal (z-score)	[36]	-0.223
